Patent US20170198014A1, “POLYPEPTIDES AND THEIR USE FOR TREATING INFLUENZA” ([…] ITS CENTER FOR COMMERCIALIZATION, priority 2014, published 2017)
Substitutions are numbered along the chain they refer to. No constants are given. Whether binding was seen depends on the method and setting. Some entries that bind do so weakly or less than the wild type. Sequences can lack the tags named with a protein.

B1: HAA.1 c fused to Hsc1-EA via a triLong linker, trimer (designed binder)
chain: MEEVVLITVPSEEVARTIAKALVEERLAACVNIVPGLTSIYRWQGEVVEDQELLLLVKTTTHAFPKLKERVKALHPYTVPEIVALPIAQGNQEYLDWLRENAGGGGSGGSGIVNVPNCNTTKYQQLARTAVAIYNYHEQAHLTFVENLNCKEQGNYYYITLAATDDAGKKAIYEAKIGVVESAGWTGVEEFKLV
B2: Hsc1-EA, monomeric version (designed binder)
chain: GIVNVPNCNTTKYQQLARTAVAIYNYHEQAHLTFVENLNCKEQGNYYYITLAATDDAGKKAIYEAKIGVVESAGWTGVEEFKLV
B3: Hsc1-3357EA, monomeric version (designed binder)
chain: B2 chain with C8P, T33C, C40V, T54C

Target: hemagglutinin H3 (A/Hong Kong/1/1968-H3N2) (influenza A virus A/Hong Kong/1/1968 (H3N2)) (UniProt Q91MA7)
Assay: BLI (FIG. 5)

| Binder | binding |
| --- | --- |
| B1 | binds |
| B2 | binds |
| B3 | binds |
